Reference: US20140005126A1, “SCAFFOLD PEPTIDES” (ISOGENICA LTD, priority 2010, published 2014)
These are yes or no findings as the source states them, for the method shown. Some entries that bind do so weakly or less than the wild type.

Protein sequences, listed by entry. Tags and fused reporters are not part of them. Lines headed by an entry give the natural chain unless they say otherwise; changes in a name come on top.
UniProt P01138: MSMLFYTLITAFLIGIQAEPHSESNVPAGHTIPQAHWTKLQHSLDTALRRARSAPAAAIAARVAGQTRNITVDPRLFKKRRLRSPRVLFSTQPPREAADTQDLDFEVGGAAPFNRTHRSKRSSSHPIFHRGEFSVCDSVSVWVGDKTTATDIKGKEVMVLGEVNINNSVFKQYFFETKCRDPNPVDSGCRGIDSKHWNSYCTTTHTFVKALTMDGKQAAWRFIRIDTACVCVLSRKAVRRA

Biological target: Human β-NGF (human) (UniProt P01138)
Assay: phage ELISA: phage-displayed clone on NGF-coated wells (left bar of each pair), read at 450 nm; control: HSA-coated wells (right bar)

Row | binding | Binder
1 | binds | MADEEKLPPGWGKPWSARGRVTYINLITVAEQWERPS (designed binder) [NP-E3]
2 | binds | MADEEKLPPGWFKCWGRGGRVWYMNWITVAGQWERPSG (designed binder) [NP-C5]
